Data on 1 substance can be found in patent US20250064988A1, “MRI-AGENT LOADED PLATELET COMPOSITIONS AND METHODS OF PREPARING AND USING THE SAME” (Cellphire, Inc., priority 2022, published 2025).

This series deals with platelets. Nature of the series: Example 10 flow cytometry MFI in the FITC channel. To be noted: 50 μM loading. Format: cell-based, human.

Consider NHS-Fluorescein, for which the “FITC fluorescence, cryopreserved platelets versus FDPDs” value is listed as “lower in cryopreserved platelets than in FDPDs”. Besides, the “mean fluorescence intensity (MFI) in the FITC channel” value (unloaded product subtracted as background) is “strong fluorescence”.
